For assay [1], the target named is RTA-myc (Kaposi's sarcoma-associated herpesvirus (KSHV)) (UniProt F5HCV3). In words: co-IP.
In assay [2] the target is LANA-Flag (Kaposi's sarcoma-associated herpesvirus (KSHV)) (UniProt Q9QR71). The assay is described as follows: co-IP.
Assay [3] deals with endogenous LANA (KSHV (endogenous in BCBL1 PEL cells)) (UniProt Q9QR71). In words: co-IP; endogenous proteins; KSHV-positive BCBL1 PEL cells, KSHV-negative BJAB cells as control; IP with LANA-specific antibodies, immunoblot.

Amino acid sequences for entries named in this document (tags omitted). A change or cut given only in a name is not applied to a line headed by its entry. Chains listed by the source or under a name are the forms on record and can include a tag or linker.
UniProt F5HCV3: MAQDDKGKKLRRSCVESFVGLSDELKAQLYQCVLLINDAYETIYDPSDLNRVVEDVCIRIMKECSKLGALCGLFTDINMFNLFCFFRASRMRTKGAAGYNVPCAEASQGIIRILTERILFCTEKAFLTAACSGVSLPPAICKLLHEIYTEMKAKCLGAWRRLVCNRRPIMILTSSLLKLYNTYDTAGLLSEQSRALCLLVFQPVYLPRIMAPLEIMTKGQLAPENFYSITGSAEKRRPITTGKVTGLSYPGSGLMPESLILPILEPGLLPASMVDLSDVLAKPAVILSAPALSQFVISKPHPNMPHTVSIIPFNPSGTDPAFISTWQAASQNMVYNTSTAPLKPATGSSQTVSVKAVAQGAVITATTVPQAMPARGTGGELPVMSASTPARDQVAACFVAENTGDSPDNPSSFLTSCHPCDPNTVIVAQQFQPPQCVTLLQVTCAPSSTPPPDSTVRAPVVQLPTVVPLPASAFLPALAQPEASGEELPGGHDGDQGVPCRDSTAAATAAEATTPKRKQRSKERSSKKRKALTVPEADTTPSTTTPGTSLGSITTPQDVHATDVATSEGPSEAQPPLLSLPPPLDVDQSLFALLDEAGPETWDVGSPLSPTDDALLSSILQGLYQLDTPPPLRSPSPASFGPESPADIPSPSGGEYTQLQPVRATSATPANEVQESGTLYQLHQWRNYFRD
UniProt Q9QR71: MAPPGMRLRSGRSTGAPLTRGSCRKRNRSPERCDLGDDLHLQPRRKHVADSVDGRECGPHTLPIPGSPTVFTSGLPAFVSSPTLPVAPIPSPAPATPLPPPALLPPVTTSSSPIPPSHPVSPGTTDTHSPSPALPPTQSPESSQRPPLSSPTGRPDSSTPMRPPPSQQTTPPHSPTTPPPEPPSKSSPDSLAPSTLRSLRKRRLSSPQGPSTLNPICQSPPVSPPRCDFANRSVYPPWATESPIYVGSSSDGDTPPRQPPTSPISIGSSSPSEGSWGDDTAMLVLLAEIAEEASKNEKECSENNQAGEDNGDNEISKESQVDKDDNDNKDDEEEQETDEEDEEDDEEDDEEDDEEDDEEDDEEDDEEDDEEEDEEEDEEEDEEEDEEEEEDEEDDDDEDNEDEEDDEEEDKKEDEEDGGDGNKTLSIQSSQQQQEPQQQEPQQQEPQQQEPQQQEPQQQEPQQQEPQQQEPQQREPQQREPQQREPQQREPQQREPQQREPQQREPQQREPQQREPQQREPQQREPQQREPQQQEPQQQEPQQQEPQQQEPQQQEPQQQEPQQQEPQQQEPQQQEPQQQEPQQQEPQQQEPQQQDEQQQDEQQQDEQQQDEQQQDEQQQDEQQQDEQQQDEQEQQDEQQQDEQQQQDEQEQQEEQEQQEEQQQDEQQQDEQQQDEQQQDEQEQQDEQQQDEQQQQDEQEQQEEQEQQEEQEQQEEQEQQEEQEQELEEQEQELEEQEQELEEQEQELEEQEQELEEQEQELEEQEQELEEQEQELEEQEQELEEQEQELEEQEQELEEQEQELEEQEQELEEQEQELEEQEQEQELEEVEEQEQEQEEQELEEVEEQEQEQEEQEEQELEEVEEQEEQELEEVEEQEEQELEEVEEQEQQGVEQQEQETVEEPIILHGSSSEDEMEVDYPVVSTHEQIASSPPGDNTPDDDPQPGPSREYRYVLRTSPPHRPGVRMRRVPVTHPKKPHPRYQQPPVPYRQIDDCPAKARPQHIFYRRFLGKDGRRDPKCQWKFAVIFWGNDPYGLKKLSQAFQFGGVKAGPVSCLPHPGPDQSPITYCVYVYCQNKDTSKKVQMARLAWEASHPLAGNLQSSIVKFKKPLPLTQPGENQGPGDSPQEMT
Heterogeneous nuclear ribonucleoprotein U isoform B (Q00839-2, form named): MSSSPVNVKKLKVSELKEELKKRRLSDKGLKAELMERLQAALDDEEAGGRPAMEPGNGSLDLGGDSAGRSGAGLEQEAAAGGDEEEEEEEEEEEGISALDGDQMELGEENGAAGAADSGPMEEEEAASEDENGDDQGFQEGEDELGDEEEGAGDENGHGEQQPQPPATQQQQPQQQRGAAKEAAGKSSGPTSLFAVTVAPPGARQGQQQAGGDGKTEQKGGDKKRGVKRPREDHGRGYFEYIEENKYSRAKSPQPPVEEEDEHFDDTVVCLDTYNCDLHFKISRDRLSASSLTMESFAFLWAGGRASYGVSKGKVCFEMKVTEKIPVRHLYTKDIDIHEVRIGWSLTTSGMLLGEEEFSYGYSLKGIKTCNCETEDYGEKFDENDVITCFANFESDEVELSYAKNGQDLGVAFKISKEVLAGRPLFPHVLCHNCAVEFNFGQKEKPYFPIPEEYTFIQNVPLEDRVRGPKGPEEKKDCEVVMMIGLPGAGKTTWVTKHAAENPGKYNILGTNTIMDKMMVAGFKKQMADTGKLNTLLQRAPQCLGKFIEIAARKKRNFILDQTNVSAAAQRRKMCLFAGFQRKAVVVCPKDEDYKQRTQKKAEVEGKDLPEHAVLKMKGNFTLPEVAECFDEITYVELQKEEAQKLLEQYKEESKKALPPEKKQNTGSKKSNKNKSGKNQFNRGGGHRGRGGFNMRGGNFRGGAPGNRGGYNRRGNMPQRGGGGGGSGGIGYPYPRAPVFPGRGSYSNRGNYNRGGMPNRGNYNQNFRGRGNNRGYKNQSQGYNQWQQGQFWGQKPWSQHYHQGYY

Here are results for two molecules from paper PMC8562486.

These are yes or no findings as the source states them, for the method shown. In cells and extracts the contact can be indirect. Some entries that bind do so weakly or less than the wild type.

As to “Heterogeneous nuclear ribonucleoprotein U isoform B (from UniProt Q00839-2 1-806)”, the binding entry in assay [1] is “no binding”; in assay [2], “binds”; in assay [3], “binds”.

B1: Serpin H1 precursor (protein, UniProt P50454 19-418)
chain: AEVKKPAAAAAPGTAEKLSPKAATLAERSAGLAFSLYQAMAKDQAVENILVSPVVVASSLGLVSLGGKATTASQAKAVLSAEQLRDEEVHAGLGELLRSLSNSTARNVTWKLGSRLYGPSSVSFADDFVRSSKQHYNCEHSKINFRDKRSALQSINEWAAQTTDGKLPEVTKDVERTDGALLVNAMFFKPHWDEKFHHKMVDNRGFMVTRSYTVGVMMMHRTGLYNYYDDEKEKLQIVEMPLAHKLSSLIILMPHHVEPLERLEKLLTKEQLKIWMGKMQKKAVAISLPKGVVEVTHDLQKHLAGLGLTEAIDKNKADLSRMSGKKDLYLASVFHATAFELDTDGNPFDQDIYGREELRSPKLFYADHPFIFLVRDTQSGSLLFIGRLVRPKGDKMRDEL
In the case of B1, the binding entry is on record as “no binding” in assay [1] and “binds” in assay [2].
